# Several values for one entry are separate records, joined by “and”; a condition that tells them apart may be missing. Equal entries are not always repeated. Structures can show the parent of a compound that is named as a salt. ± gives the standard deviation of the averaged measurements. Whole data set: some 1,800 compounds, median “GFP- (p16Ink4a-) cell count relative to negative-control wells” near 0.99, cut for the lowest 2% near 0.5. The list shows a part of the results.
# Test system: mouse p16Ink4a+/- lung fibroblasts (INKBRITE, bleomycin-injured)
# Experiment: GFP- (p16Ink4a-) cell count relative to negative-control wells (fold of vehicle); higher = more p16Ink4a- cells surviving
# Settings: 1 µM; 3 days
row,SMILES,GFP-
1,COc1cc2ncnc(Nc3cccc(Cl)c3)c2cc1OC,1.01
2,COc1ccc(C[C@H](NC(=O)[C@H](C)NC(=O)CN2CCOCC2)C(=O)N[C@@H](Cc2ccccc2)C(=O)[C@]2(C)CO2)cc1,0.791
3,CCOc1ccn(-c2ccc(F)cc2)c(=O)c1C(=O)Nc1ccc(Oc2ccnc(N)c2Cl)c(F)c1,0.736
4,Nc1ccn([C@@H]2CS[C@H](CO)O2)c(=O)n1 [Lamivudine],1
5,C[C@]12CCC3=C4CCC(=O)C=C4CC[C@H]3[C@@H]1CC[C@@]2(O)CC#N [Dienogest],0.899
6,CN1CCN(CCCN2c3ccccc3Sc3ccc(C(F)(F)F)cc32)CC1 [Trifluoperazine],0.971
7,CC(C)NCC(O)COc1ccc(CCOCC2CC2)cc1 (stereo not drawn) [Betaxolol],0.978
8,O=C1CC(=O)c2c(Cl)c(Cl)c(Cl)c(Cl)c21,1.09
9,CO/C(O)=C1\C(C)=NC(C)=C(C(=O)OCCN(C)Cc2ccccc2)C1c1cccc([N+](=O)[O-])c1 (stereo not drawn) [Nicardipine],1.01
10,NC(Cc1c[nH]c2ccc(O)cc12)C(=O)O (stereo not drawn) [5-hydroxytryptophan (5-HTP)],1.07
11,COC1=C(OC)C(=O)C(CCCCCCCCCCO)=C(C)C1=O [Idebenone],0.993
12,Cn1c(N2CCCCS2(=O)=O)nc(C(=O)NCc2ccc(F)cc2)c(O)c1=O,0.561
13,CCc1ccc(OCc2ccccc2C(=O)Nc2ccc3nc(C)cc(N)c3c2)cc1,0.975
14,C[C@H](N[C@@H](CCc1ccccc1)C(=O)O)C(=O)N1CCC[C@H]1C(=O)O [Enalaprilat],1.02
15,Cc1nnc(C(C)C)n1C1CC2CCC(C1)N2CC[C@H](NC(=O)C1CCC(F)(F)CC1)c1ccccc1 (stereo partly drawn) [Maraviroc],1.17
16,CC(C)C[C@@H](C(=O)N[C@H](C(=O)OC1CCCC1)c1ccccc1)[C@H](O)C(=O)NO [Tosedostat],1.08
17,C#Cc1cccc(Nc2ncnc3cc4c(cc23)OCCOCCOCCO4)c1 [Icotinib],0.916
18,"O=Nc1c(-c2c(O)[nH]c3cc(Br)ccc23)[nH]c2ccccc12 [(3e)-6'-Bromo-2,3'-Biindole-2',3(1h,1'h)-Dione 3-Oxime]",1.23
19,CC(=O)C1=C(O)C=C2Oc3c(C(C)=O)c(O)c(C)c(O)c3[C@]2(C)C1=O [(+)-Usniacin],0.95
20,CC(=O)Nc1nc(C)c(-c2ccc(Cl)c(S(=O)(=O)NCCO)c2)s1,0.916
21,Cc1ccc(Cl)cc1N(CC(=O)Nc1c(F)cccc1F)S(C)(=O)=O,1.06
22,O=C1NC(=O)/C(=C/c2cccc(C(F)(F)F)c2)S1,0.979 ± 0.056
23,CC(C)[C@H](N)C(=O)OCC(CO)OCN1C=NC2C(=O)NC(N)=NC21 (stereo partly drawn) [Valganciclovir HCl],0.961
24,CCCCN1CCCCC1C(=O)Nc1c(C)cccc1C (stereo not drawn) [Bupivacaine],1.13
25,c1ccc(-c2[nH]ncc2-c2ccnc3ccccc23)nc1 [4-(3-Pyridin-2-Yl-1h-Pyrazol-4-Yl)Quinoline],1.27
26,CC[C@H](C)C(=O)O[C@H]1C[C@@H](C)C=C2C=C[C@H](C)[C@H](CC[C@@H]3C[C@@H](O)CC(=O)O3)[C@H]21 [Lovastatin],0.811

row,SMILES,GFP-
1,N#C[C@@H]1C[C@@H]2C[C@@H]2N1C(=O)[C@@H](N)C12CC3CC(CC(O)(C3)C1)C2 [Saxagliptin],0.839
2,CC(C)c1cc(C(C)C)c(CC(=O)NS(=O)(=O)Oc2c(C(C)C)cccc2C(C)C)c(C(C)C)c1 [Avasimibe],0.842
3,C[C@@H]1C[C@H]2[C@@H]3CCC4=CC(=O)C=C[C@]4(C)[C@@]3(Cl)[C@@H](O)C[C@]2(C)[C@@]1(OC(=O)c1ccco1)C(=O)CCl [Mometasone Furoate],0.947
4,COc1ccc(O)cc1 [Mequinol],0.927
5,Cc1cc2c(s1)Nc1ccccc1N=C2N1CCN(C)CC1 [Olanzapine],0.909
6,COc1ccccc1N1CCN(CCCNc2cc(=O)n(C)c(=O)n2C)CC1 [Urapidil Hydrochloride],0.921
7,O=C(Nc1cc2cc[nH]c2cn1)c1ccccc1,1.09
8,COc1ccc2cc([C@H](C)C(=O)O)ccc2c1 [Naproxen],1.07
9,O=S(=O)(O)NC1CCCCC1 [Cyclamic Acid],1.21
10,CCOC(=O)[C@H](CCc1ccccc1)N[C@H]1CS[C@H](c2cccs2)CN(CC(=O)O)C1=O [Temocapril],1.03
11,CN[C@H](CC(=O)O)C(=O)O [N-methyl-d-aspartic Acid],1.09
12,O=C(N/N=C/c1ccc([N+](=O)[O-])o1)c1ccc(O)cc1 [Nifuroxazide],0.93
13,O=C(c1ccc(Nc2nccc(-c3cc4ccccc4s3)n2)cc1)N1CCC(N2CCCC2)CC1 [IKK-16 (IKK Inhibitor VII)],0.887
14,"CNC(=O)CN(CCN(CCN(CC(=O)O)CC(=O)NC)CC(=O)O)CC(=O)O [Omniscan, Gadodiamide hydrate]",0.702
15,Cc1cnc(C(=O)O)c[n+]1[O-] [Acipimox],1.02
16,O=C1NC(=O)/C(=C\c2ccc(-c3ccc(F)cc3)o2)S1,0.981
17,Cc1cc(OCc2nnc(SC3CCCC3)n2-c2cccnc2)ccc1-c1ccc(S(C)(=O)=O)cc1,0.67
18,CC(C)Oc1ccc2c(=O)c(-c3ccccc3)coc2c1 [Ipriflavone],1.09
19,C[N+](C)(C)C[C@H](O)CC(=O)O [L-carnitine],1.05
20,Nc1ncnc2[nH]cnc12 [Adenine],1.07
21,CO[C@@H]1[C@@H](O[C@H]2O[C@@H](C)[C@H](O[C@@H]3C[C@](C)(O)[C@H](O)[C@@H](C)O3)[C@@H](N(C)C)[C@@H]2O)[C@@H](CC=O)C[C@@H](C)[C@@H](O[C@H]2CC[C@H](N(C)C)[C@H](C)O2)/C=C/C=C/C[C@@H](C)OC(=O)C[C@H]1O [Spiramycin],0.986
22,CCOC(CN1CCN(CC(C)C(=O)c2ccccc2)CC1)c1ccccc1 (stereo not drawn) [Eprazinone],1.15
23,CC(C)(C#N)c1ccc(N2C(=O)OCc3cnc4ccc(-c5cnc6ccccc6c5)cc4c32)cc1,0.688
24,CCS(=O)(=O)N1CC(CC#N)(n2cc(-c3ncnc4[nH]ccc34)cn2)C1 [Baricitinib],0.748 ± 0.053
25,Cc1cccc(C)c1OCC(C)N (stereo not drawn) [Mexiletine],1
26,COc1cc(F)c(C(C)C)cc1-c1ccc(C(F)(F)F)cc1CN1C(=O)O[C@H](c2cc(C(F)(F)F)cc(C(F)(F)F)c2)[C@@H]1C [Anacetrapib],1.01

row,SMILES,GFP-
1,COc1ccc2c(c1)C(=O)N(CCc1ccc(S(=O)(=O)NC(=O)NC3CCCCC3)cc1)C(=O)C2(C)C [Gliquidone],1.13
2,O=c1c(O)c(-c2ccc(O)c(O)c2)oc2cc(O)cc(O)c12 [Quercetin],0.879 and 0.914
3,CCCc1cc(C)nc(O)c1CNC(=O)c1cc(-c2ccc(N3CCN(C(C)C)CC3)nc2)cc2c1cnn2C(C)C,1.13
4,CC/C(=C(/CC)c1ccc(O)cc1)c1ccc(O)cc1 [Diethylstilbestrol],1.13
5,CC1(C)Cc2c(-c3ccccc3)c(-c3ccc(Cl)cc3)c(CC(=O)O)n2C1 [Licofelone],0.892
6,CN(N=O)C(=O)N[C@@H]1[C@@H](O)[C@H](O)[C@@H](CO)O[C@@H]1O [Streptozocin],1.05
7,CN(C)CCCN1c2ccccc2CCc2ccc(Cl)cc21 [Clomipramine],0.94
8,CC(C)n1cnc2c(NCCc3ccc(O)cc3)nc(-c3csc4ccccc34)nc21 [StemRegenin 1],1.14
9,CCC(=O)O[C@]1(C(=O)CCl)[C@@H](C)C[C@H]2[C@@H]3C[C@H](F)C4=CC(=O)C=C[C@]4(C)[C@@]3(F)[C@@H](O)C[C@@]21C [Halobetasol Propionate],0.951
10,Cc1cc(C)c(/C=C2\C(=O)Nc3ccccc32)[nH]1 [Semaxanib],0.862
11,Cc1cc(C(C)(C)C)c(O)c(C)c1CC1=NCCN1 [Oxymetazoline],0.98
12,CC(C)N(CCCNC(=O)Nc1ccc(C(C)(C)C)cc1)C[C@H]1O[C@@H](n2ccc3c(N)ncnc32)[C@H](O)[C@@H]1O,0.969 and 0.875
13,CN(C)Cc1cccc(/N=C(\c2ccccc2)c2c(O)[nH]c3cc(C(=O)N(C)C)ccc23)c1,0.939
14,Nc1ncnc2c1c(-c1cccc(OCc3ccccc3)c1)cn2[C@H]1C[C@H](CN2CCCC2)C1,1.03
15,Clc1ccc(C2(c3ccc(-c4cn[nH]c4)cc3)CCNCC2)cc1,1.25
16,CC(=O)[C@H]1CC[C@H]2[C@@H]3C=CC4=CC(=O)CC[C@@]4(C)[C@@H]3CC[C@]12C [Dydrogesterone],1
17,CO[C@@H]1[C@@H](OC(N)=O)[C@@H](O)[C@H](Oc2ccc3c(O)c(NC(=O)c4ccc(O)c(CC=C(C)C)c4)c(=O)oc3c2C)OC1(C)C [Novobiocin],0.976
18,Nc1ncnc2c1c(-c1cccc(OCc3ccccc3)c1)cn2[C@H]1C[C@@H](CN2CCC2)C1,0.882
19,Nc1nc(CC(=O)Nc2ccc(CCNC[C@H](O)c3ccccc3)cc2)cs1 [Mirabegron],0.979
20,COc1ccccc1OCC(O)CO (stereo not drawn) [Guaifenesin],1.01
21,Cn1cc(C2=C(c3cn(CCCSC(=N)N)c4ccccc34)C(=O)NC2=O)c2ccccc21,0.769
22,CC(/C=C/C(=O)NO)=C\[C@@H](C)C(=O)c1ccc(N(C)C)cc1 [Trichostatin A],0.5355 ± 0.0037
23,CC(C)(C)c1cc(/C=C(\C#N)C(N)=S)cc(C(C)(C)C)c1O [Tyrphostin],1.12
24,Cc1cnc(-c2cc(N3CCN(C(=O)CCS(C)(=O)=O)CC3)ncc2Cl)c(C)c1,0.98
25,NC(=O)c1cn(Cc2c(F)cccc2F)nn1 [Rufinamide],1.11
26,COc1cc(C(=O)NS(=O)(=O)c2ccccc2C)ccc1Cc1cn(C)c2ccc(NC(=O)OC3CCCC3)cc12 [Zafirlukast],1.04

# Structural class, those above containing a CF3 group
row,SMILES,GFP-
6,CN1CCN(CCCN2c3ccccc3Sc3ccc(C(F)(F)F)cc32)CC1 [Trifluoperazine],0.971
22,O=C1NC(=O)/C(=C/c2cccc(C(F)(F)F)c2)S1,0.979 ± 0.056
26,COc1cc(F)c(C(C)C)cc1-c1ccc(C(F)(F)F)cc1CN1C(=O)O[C@H](c2cc(C(F)(F)F)cc(C(F)(F)F)c2)[C@@H]1C [Anacetrapib],1.01
